{"source": "patent US20030170173A1", "about": "“Contrast agents” (priority 2000, published 2003)", "experiment": "Metabolic experiments/relaxometry: Gd-chelates incubated with homogenized liver, T1-relaxation time measured", "type": "in vitro ADME, cattle", "conditions": "37° C.; for T1-relaxation time: Gd-chelate 2 mM in saline, 20 MHz; for Change of T1-relaxation time (contrast efficacy) with incubation time: 1, 10 or 50% liver homogenate, 0 to 60 h", "key": {"[1]": {"conditions": "1% liver homogenate, incubation time 0 h"}, "[2]": {"conditions": "1% liver homogenate, incubation time 1 h"}, "[3]": {"conditions": "1% liver homogenate, incubation time 24 h"}, "[4]": {"conditions": "1% liver homogenate, incubation time 36 h"}, "[5]": {"conditions": "1% liver homogenate, incubation time 60 h"}, "[6]": {"conditions": "10% liver homogenate, incubation time 0 h"}, "[7]": {"conditions": "10% liver homogenate, incubation time 1 h"}, "[8]": {"conditions": "10% liver homogenate, incubation time 24 h"}, "[9]": {"conditions": "10% liver homogenate, incubation time 36 h"}, "[10]": {"conditions": "10% liver homogenate, incubation time 60 h"}, "[11]": {"conditions": "50% liver homogenate, incubation time 0 h"}, "[12]": {"conditions": "50% liver homogenate, incubation time 1 h"}, "[13]": {"conditions": "50% liver homogenate, incubation time 24 h"}, "[14]": {"conditions": "50% liver homogenate, incubation time 36 h"}, "[15]": {"conditions": "50% liver homogenate, incubation time 60 h"}}, "data": [{"smiles": "O=C(O)CN1CCN(CC(=O)O)CCN(C(=O)NCc2ccccc2)CCN(CC(=O)O)CC1.[Gd]", "note": "[Gd-chelate 4a, Gadolinium 1,4,7-tris(carboxymethyl)-10-(benzyl)carbamoyl-1,4,7,10-tetraazacyclododecane]", "values": [{"measurement": "T1-relaxation time", "setting": "[1]", "value": 136, "unit": "ms"}, {"measurement": "T1-relaxation time", "setting": "[2]", "value": 137, "unit": "ms"}, {"measurement": "T1-relaxation time", "setting": "[3]", "value": 142, "unit": "ms"}, {"measurement": "T1-relaxation time", "setting": "[4]", "value": 144, "unit": "ms"}, {"measurement": "T1-relaxation time", "setting": "[5]", "value": 145, "unit": "ms"}, {"measurement": "Change of T1-relaxation time (contrast efficacy) with incubation time", "value": "increased exponentially"}, {"measurement": "T1-relaxation time", "setting": "[6]", "value": 125, "unit": "ms"}, {"measurement": "T1-relaxation time", "setting": "[7]", "value": 132, "unit": "ms"}, {"measurement": "T1-relaxation time", "setting": "[8]", "value": 175, "unit": "ms"}, {"measurement": "T1-relaxation time", "setting": "[9]", "value": 182, "unit": "ms"}, {"measurement": "T1-relaxation time", "setting": "[10]", "value": 184, "unit": "ms"}, {"measurement": "T1-relaxation time", "setting": "[11]", "value": 129, "unit": "ms"}, {"measurement": "T1-relaxation time", "setting": "[12]", "value": 132, "unit": "ms"}, {"measurement": "T1-relaxation time", "setting": "[13]", "value": 158, "unit": "ms"}, {"measurement": "T1-relaxation time", "setting": "[14]", "value": 165, "unit": "ms"}, {"measurement": "T1-relaxation time", "setting": "[15]", "value": 175, "unit": "ms"}]}, {"smiles": "Cc1ccc(NC(=O)N2CCN(CC(=O)O)CCN(CC(=O)O)CCN(CC(=O)O)CC2)cc1.[Gd]", "note": "[Gd-chelate 4b, Gadolinium 1,4,7-tris(carboxymethyl)-10-(p-tolyl)carbamoyl-1,4,7,10-tetraazacyclododecane]", "values": [{"measurement": "T1-relaxation time", "setting": "[1]", "value": 128, "unit": "ms"}, {"measurement": "T1-relaxation time", "setting": "[2]", "value": 130, "unit": "ms"}, {"measurement": "T1-relaxation time", "setting": "[3]", "value": 134, "unit": "ms"}, {"measurement": "T1-relaxation time", "setting": "[4]", "value": 135, "unit": "ms"}, {"measurement": "T1-relaxation time", "setting": "[5]", "value": 137, "unit": "ms"}, {"measurement": "Change of T1-relaxation time (contrast efficacy) with incubation time", "value": "increased exponentially"}, {"measurement": "T1-relaxation time", "setting": "[6]", "value": 103, "unit": "ms"}, {"measurement": "T1-relaxation time", "setting": "[7]", "value": 108, "unit": "ms"}, {"measurement": "T1-relaxation time", "setting": "[8]", "value": 165, "unit": "ms"}, {"measurement": "T1-relaxation time", "setting": "[9]", "value": 157, "unit": "ms"}, {"measurement": "T1-relaxation time", "setting": "[10]", "value": 179, "unit": "ms"}, {"measurement": "T1-relaxation time", "setting": "[11]", "value": 120, "unit": "ms"}, {"measurement": "T1-relaxation time", "setting": "[12]", "value": 125, "unit": "ms"}, {"measurement": "T1-relaxation time", "setting": "[13]", "value": 193, "unit": "ms"}, {"measurement": "T1-relaxation time", "setting": "[14]", "value": 200, "unit": "ms"}, {"measurement": "T1-relaxation time", "setting": "[15]", "value": 215, "unit": "ms"}]}]}
